Results: patent US5763492A, “Methods for effecting memory enhancement mediated by non-steroidal sulfatase inhibitors” (Duguesne University of the Holy Ghost, priority 1996, dated 1998)

Tested on: scopolamine-induced amnesia in rats
Assay: Passive avoidance test (Gemini Avoidance System), crossover latency, scopolamine-induced amnesia
Assay type: in vivo, rat
Settings: scopolamine 1 mg/Kg IP 30 min before acquisition trial; saline one hour before; saline control without scopolamine 583.8±16.2 sec

CN1[C@@H]2C[C@@H](OC(=O)[C@H](CO)c3ccccc3)C[C@H]1[C@@H]1O[C@@H]12 [scopolamine, reference compound]
retention latency 24 hours later: 21.1 ± 10.9 s
